{
  "source": "patent US20180325164A1",
  "about": "“LIQUID FORMULATION” (JAYTEE BIOSCIENCES LIMITED, priority 2015, published 2018)",
  "origin": "cited, not measured here",
  "data": [
    {"smiles": "C=C(C)[C@@H]1CCC(C)=C[C@H]1c1c(O)cc(CCCCC)cc1O", "note": "[CBD, 2-[(1R, 6R)-6-isopropenyl-3-methylcyclohex-2-en-1yl]-5-pentylbenzene-1,3-diol]", "values": [
      {"measurement": "solubility in organic solvents", "setting": "organic solvents, including propylene glycol", "result": "soluble"},
      {"measurement": "solubility in water", "setting": "water", "result": "largely insoluble"}
    ]}
  ]
}
